Measurements reported in PubChem BioAssay AID1259281 (Sanger Institute, 2017)
In all, the deposit lists 794 reagents; shown is a random part of them. In the full data, 22 (2.8%) are marked active. 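Calls rest on knock-down alone only; drug synergy scores play no part in them.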 Viability is capped at 1. Not stated in the record: the amount of reagent, the time to read-out.

- Test: 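Find knock-downs that kill colorectal cancer cells alone or strengthen targeted drugs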 (primary screen)
- Cell system: human COLO678 colorectal cancer cell line
- Reagents: siRNA pool against human genes
- Conditions: anchor drugs at fixed doses: BYL719 1 µM, cetuximab 5 µg/ml or trametinib 10 nM; DMSO vehicle for the siRNA-alone arm
- Measurement: 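Cell viability compared with non-targeting pool wells, averaged over replicates; knock-down-alone effect also as robust z-score; synergy scores set knock-down plus drug against expected joint effect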
- Scale: robust z-score, siRNA alone: higher = more viable cells; strongly negative means essential; viability, siRNA alone: higher = more surviving cells; synergy score with BYL719 and synergy score with trametinib and synergy score with cetuximab: higher = stronger synergistic killing with drug
- Rule for the call: 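Called essential (knock-down alone) if knock-down by itself drops cell number to a robust z-score under -3; all others no change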
- Calls: active = essential (knock-down alone); inactive = no change

target	PubChem SID	robust z-score, siRNA alone	viability, siRNA alone (fraction of control)	synergy score with BYL719	synergy score with trametinib	synergy score with cetuximab	call
FASTK (Fas activated serine/threonine kinase)	SID56479004	-2.39	0.909	-0.174	-0.0837	-0.129	inactive
PRKAR1B (protein kinase cAMP-dependent type I regulatory subunit beta)	SID152149404	0.0581	0.987	0.03	0.0399	-0.0398	inactive
EPHB6 (EPH receptor B6)	SID152155826	0.473	1	0.0343	-0.0441	0.116	inactive
MAGI2	SID135622325	0.473	1	-0.0919	0.0273	0.0246	inactive
SRPK1 (SRSF protein kinase 1)	SID56478751	-0.678	0.963	-0.0302	0.0255	-0.0304	inactive
RPS6KA6 (ribosomal protein S6 kinase A6)	SID152153100	-0.178	0.979	-0.111	0.00605	0.0225	inactive
GRK3 (G protein-coupled receptor kinase 3)	SID135620814	0.473	1	-0.0919	0.0399	-0.0681	inactive
CDK15 (cyclin dependent kinase 15)	SID56478852	0.473	1	0.00199	-0.0101	-0.0023	inactive
ROR2 (ROR family WNT receptor 2)	SID56478550	0.473	1	-0.0558	-0.00179	0.0379	inactive
SYNCRIP (synaptotagmin binding cytoplasmic RNA interacting protein)	SID134320219	0.347	0.996	0.18	0.0601	0.0548	inactive
PRPS1 (phosphoribosyl pyrophosphate synthetase 1)	SID56479145	0.473	1	0.0182	0.0654	0.0613	inactive
TGFBR1 (transforming growth factor beta receptor 1)	SID152153272	0.473	1	-0.0456	-0.0547	-0.0315	inactive
BMPR1B (bone morphogenetic protein receptor type 1B)	SID56478926	0.473	1	-0.0919	0.0482	-0.0142	inactive
FLT4 (fms related receptor tyrosine kinase 4)	SID152148537	0.473	1	-0.0919	-0.0422	-0.0681	inactive
PRKAB2 (protein kinase AMP-activated non-catalytic subunit beta 2)	SID134312706	0.473	1	0.0784	-0.0794	0.025	inactive
TRIB3 (tribbles pseudokinase 3)	SID56478723	0.473	1	-0.0738	0.00065	-0.00579	inactive
ADCK5 (aarF domain containing kinase 5)	SID56479281	0.473	1	0.0636	0.013	0.0615	inactive
BCKDK (branched chain keto acid dehydrogenase kinase)	SID135620909	0.473	1	-0.0919	0.0291	-0.00768	inactive
TESK1 (testis associated actin remodelling kinase 1)	SID152149255	0.311	0.995	-0.0619	0.074	0.0595	inactive
IPPK (inositol-pentakisphosphate 2-kinase)	SID152153893	-2.23	0.914	0.0576	-0.0475	-0.0253	inactive

Reprinted from the entries so far for reference:
target	PubChem SID	robust z-score, siRNA alone	viability, siRNA alone (fraction of control)	synergy score with BYL719	synergy score with trametinib	synergy score with cetuximab	call
FASTK (Fas activated serine/threonine kinase)	SID56479004	-2.39	0.909	-0.174	-0.0837	-0.129	inactive
PRKAR1B (protein kinase cAMP-dependent type I regulatory subunit beta)	SID152149404	0.0581	0.987	0.03	0.0399	-0.0398	inactive
EPHB6 (EPH receptor B6)	SID152155826	0.473	1	0.0343	-0.0441	0.116	inactive
